LdMetRS: 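Methionyl-tRNA synthetase (putative), Leishmania donovani (UniProt E9BF75). Primary screen of methionyl-tRNA synthetase; the read-out is not stated. The test concentration is not given. Values are per cent inhibition. About 68,000 compounds were tested under these conditions; 0.035% (about 24) showed 50% or more at least once.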
Mtb heat-shock: 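Assay on Mycobacterium tuberculosis, filed only as a heat shock assay from Cornell; the read-out is not stated. The concentration is filed as 10 mM, unlikely as a test dose, so the dose is not known. The record gives no direction; compounds that gave an IC50 in retests scored well above the rest, so higher reads as stronger inhibition. Size under these conditions: about 69,000 compounds, about 930 of them at 50% or above in at least one test.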

Sequences of proteins named here, by UniProt entry; tags and fusion partners are left off.
UniProt E9BF75, entry or part of it: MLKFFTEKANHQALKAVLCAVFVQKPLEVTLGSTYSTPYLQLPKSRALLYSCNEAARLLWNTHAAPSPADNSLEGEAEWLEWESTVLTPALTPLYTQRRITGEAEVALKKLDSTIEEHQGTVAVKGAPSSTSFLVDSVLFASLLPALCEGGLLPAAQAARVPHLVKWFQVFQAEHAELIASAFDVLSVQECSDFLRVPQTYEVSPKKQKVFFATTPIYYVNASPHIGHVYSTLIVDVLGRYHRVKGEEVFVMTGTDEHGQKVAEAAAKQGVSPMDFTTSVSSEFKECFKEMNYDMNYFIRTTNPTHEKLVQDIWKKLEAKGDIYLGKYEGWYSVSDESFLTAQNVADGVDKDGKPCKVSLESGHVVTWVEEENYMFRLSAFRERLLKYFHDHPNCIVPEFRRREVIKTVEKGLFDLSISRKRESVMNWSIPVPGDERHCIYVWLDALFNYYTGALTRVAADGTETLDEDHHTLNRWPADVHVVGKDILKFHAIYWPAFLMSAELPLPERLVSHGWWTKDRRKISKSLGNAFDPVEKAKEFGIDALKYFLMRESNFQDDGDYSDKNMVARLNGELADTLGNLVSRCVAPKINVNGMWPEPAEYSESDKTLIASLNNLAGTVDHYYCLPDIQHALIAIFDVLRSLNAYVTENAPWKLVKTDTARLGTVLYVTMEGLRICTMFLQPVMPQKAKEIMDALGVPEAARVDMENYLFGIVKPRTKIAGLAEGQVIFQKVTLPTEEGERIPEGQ

Results are percentages, as filed.
The controls that fix the scale are not given in the record; negative values are as filed.
The compounds are a random part of those screened.
A dash means the value is not listed here; it may have been measured.

structure	LdMetRS	Mtb heat-shock
Cn1nc(C2CCCN(Cc3cccc(F)c3)C2)c2nccnc21 (centres undefined)	15.41%	-
COc1cc(N2CCC3(CCCN3Cc3cnn(C)c3)CC2)ncn1	14.29%	-
COc1ccc(NC(=O)N2CCCC(CO)C2)c(C)c1 (centres undefined)	16.72%	-18.61%
O=C1NCCO[C@H]2CN(C(=O)Cc3csc4ccccc34)CC[C@@H]12	9.524%	-
NCc1cccc(-c2cccnc2C(=O)NCCN2CCCC2)c1	29.75%	11.05%
CN(C)C[C@@H]1CN(C(=O)Cc2cccc(O)c2)C[C@@H]1CO	3.922%	-13.75%
COc1cccc(/C=C/CCN2CCC(C(=O)N3CCCC3)CC2)c1	10.48%	-24.56%
Cn1cc(CN(Cc2ccccn2)Cc2ccccc2Cl)cn1	16.19%	20.97%
O=C(O)C(F)(F)F.O=C1CCCN1Cc1ncn2c1CN(Cc1cccs1)CCC2	-	3.07%
Cc1nc(N)sc1C(=O)N1CCCC(c2nccn2CCCN(C)C)C1 (centres undefined)	12.59%	-3.304%
CC(C)(C)NC(=O)CN1CCN(C(=O)Nc2ccc(F)cc2F)CC1	4.5%	-7.168%
O=C(NCc1csc(Cc2ccccc2)n1)C1NCCc2[nH]cnc21 (centres undefined)	3.015%	-12.59%
CC1(C)CN(CC(=O)NCc2ccccc2F)C[C@]1(C)O	9.524%	-4.931%
NC(=O)c1noc(Cn2ncc3ccccc3c2=O)n1	2.005%	-54.05%
CN1CCC2(CC1)CC(NC(=O)c1csnn1)c1ccccc1O2.O=C(O)C(F)(F)F (centres undefined)	-	76.95%
Cc1ccc(CN2CC[C@@H]3OCCN(S(C)(=O)=O)[C@H]3CC2)s1	10.93%	-
O=C(COc1ccc(-n2cccn2)nn1)NC1CCCCC1	-0.2825%	5.393%
CS(=O)(=O)c1cccc(C(N)c2ccccc2)c1 (centres undefined)	9.036%	-0.9576%
Cc1c(CN2CC[C@@H](N3CCC(O)CC3)[C@H](O)C2)[nH]c2ccc(Cl)cc12	13.98%	15.96%
CCCS(=O)(=O)N1CCC2(CC(C(=O)NCc3cccnc3)=NO2)C1 (centres undefined)	16.3%	-25.19%
Cc1cnc(N2CCOC(C(=O)NCc3ccccc3)C2)s1 (centres undefined)	12.66%	-9.997%
O=C(c1ccccn1)N1CC[C@@H](N2CCOCC2)[C@@H]1Cc1ccccc1	5.882%	-19.74%
CC(C)N(C)CC(=O)Nc1ccc(-n2ccc(C(N)=O)n2)cc1	11.15%	4.536%
Cc1nc(C)n(CC2CCCN2CC(=O)Nc2ccnn2C(C)C)n1 (centres undefined)	3.937%	-15.71%
Cc1cnn(CC2CCCN2Cc2noc(CC(C)C)n2)c1 (centres undefined)	23.21%	-2.696%
CCCC(=O)Nc1cnn(CC(=O)Nc2ccc(SC)cc2)c1	11.48%	10.38%
Cc1nc(C)n(CC2CN(Cc3cccc(C(N)=O)c3)CCO2)n1 (centres undefined)	18.1%	7.115%
CN(C)C(=O)N1CCCC2(CCN(Cc3ccncc3)C2)C1 (centres undefined)	8.014%	-11.92%
CNC(=O)NCC1CCC2(CCN(C(=O)c3ccccc3)CC2)CO1 (centres undefined)	15.5%	27.9%
CC(C)Cc1nc(CS(C)(=O)=O)n(-c2ccccn2)n1	6.015%	-0.7696%
c1ccc(-c2noc(CN3CCc4c(ncn4C4CC4)C3)n2)nc1	5.541%	3.323%
COCCCS(=O)(=O)N(Cc1cccc(C)c1)Cc1ccccn1	3.046%	-12.03%
c1cncc(-n2cnnc2CC2CCNCC2)c1	13.77%	-0.6951%
Cc1ccc(CN2CCOC3(COCCN(S(C)(=O)=O)C3)C2)s1.O=C(O)C(F)(F)F (centres undefined)	-	-21.78%
Cc1cc(C)nc(CN(C)C(=O)c2ccccc2C2CCNC2)c1 (centres undefined)	8.939%	13.74%
OCC1N(Cc2ccco2)[C@H]2CC[C@]1(O)CC2 (some centres undefined)	16.16%	-
O=C(NS(=O)(=O)c1ccccc1Cl)c1cccc2c1OCCO2	3.448%	17.28%
COc1ccc(OC)c(CNC2CCCc3nc(N(C)C)ncc32)c1 (centres undefined)	7.05%	2.722%
CCc1ncc(CN2C[C@H]3CC[C@@H]2CN(C(=O)C2CCC2)C3)cn1	10.14%	-
CCNC(=O)N1CCC(Nc2nccc(NCC)n2)CC1	16.43%	-22.02%
CC(C)Cc1cc(C(=O)N2CCC(Oc3cccnc3)CC2)n(C)n1	15.81%	-12.37%
Cc1nn(Cc2ccccc2)c(C)c1CNC1CCc2ncnn2C1 (centres undefined)	18.03%	-9.116%

4 of the entries, repeated:

structure	LdMetRS	Mtb heat-shock
O=C(NS(=O)(=O)c1ccccc1Cl)c1cccc2c1OCCO2	3.448%	17.28%
CN1CCC2(CC1)CC(NC(=O)c1csnn1)c1ccccc1O2.O=C(O)C(F)(F)F (centres undefined)	-	76.95%
Cc1nc(N)sc1C(=O)N1CCCC(c2nccn2CCCN(C)C)C1 (centres undefined)	12.59%	-3.304%
Cc1cnn(CC2CCCN2Cc2noc(CC(C)C)n2)c1 (centres undefined)	23.21%	-2.696%

Source: ChEMBL document CHEMBL3988442, “University of Dundee, Small-Polar-MMV Screening Library” (2021).